Laboratory results taken from patent publication US20180258123A1, “Suppressors of Premature Termination Codons as Therapeutics and Methods for Their Use” (The University of British Columbia, priority 2015, published 2018).

Tested on: HDQ-P1 cells, full-length p53
Experiment: p53 read-through assay with steroids (western blotting, FIG. 4)
Assay type: cell-based, human
Protocol: HDQ-P1 cells were seeded at 100,000 cells per well of TC-treated 6-well plates. The next day, the medium was replaced with fresh medium containing compounds to be tested and were incubated for 48 to 96 h. The medium was removed by aspiration, cell monolayers were rinsed with 1 ml ice-cold PBS. Cells were lysed in 80 μl lysis buffer (20 mM Tris-HCl pH 7.5, 150 mM NaCl, 1 mM EDTA, 1 mM EGTA, 1% (v/v) Triton […], 2.5 mM sodium pyrophosphate, 1 mM beta-glycerophosphate supplemented with fresh 1 mM Na3VO4, 1 mM dithiothreitol and 1× complete protease inhibitor cocktail (Roche Molecular BiochemicalsTM)). Lysates were pre-cleared by centrifugation at 18,000 g for 15 min at 4° C. Supernatants were collected, protein was quantitated using the Bradford assay and lysates were adjusted to 1 mg/ml protein. Capillary electrophoresis and western analysis conditions were carried out with manufacturer's reagents according to the user manual (ProteinSimple WESTM). Briefly, 5.6 μl of cell lysate was mixed with 1.4 μl fluorescent master mix and heated at 95° C. for 5 min. The samples, blocking reagent, wash buffer, DO-1 p53 antibody (0.5 μg/ml) and vinculin antibody (1:2000, R&D clone 728526), secondary antibody and chemiluminescent substrate were dispensed into the microplate provided by the manufacturer. […] The data was analyzed with inbuilt CompassTM software (ProteinsimpleTM). […]

C[C@H]1C[C@H]2[C@@H]3CCC4=CC(=O)C=C[C@]4(C)[C@@]3(F)[C@@H](O)C[C@]2(C)[C@@]1(O)C(=O)CO [Betamethazone, Betamethasone]
read-through activity of steroid alone: no read-through activity
